PubChem BioAssay AID1259424, University of Nebraska Medical Center, 2018

Purpose: 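Seek colon cancer survival genes behaving like KSR1, using a six-gene signature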 (primary screen)
Cells: human HCT116 colon cancer cells
Knock-down reagent: siRNA pool against human genes, 50 nM
Measurement: 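Six signature mRNAs by branched-DNA multiplex assay, scaled to two housekeeping genes and non-targeting median, log2; matched to mean KSR1 knockdown profile by Pearson correlation and euclidean distance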
Direction: mean correlation with KSR1 profile: higher = expression change more like KSR1 knockdown; mean distance from KSR1 profile: higher = expression change less like KSR1 knockdown
The deposit covers about 14,000 reagents; this is an unselected part. 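Higher correlation or smaller distance means closer resemblance to KSR1 loss; control wells, including KSR1 knockdowns, recur on many plates.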 Not all columns of the deposit are shown. Reagent sequences are not shown. The record does not give: the time to read-out.

gene knocked down	mean correlation with KSR1 profile	mean distance from KSR1 profile
DYNC1H1 (dynein cytoplasmic 1 heavy chain 1)	-0.967	2.49
IVNS1ABP (influenza virus NS1A binding protein)	-0.0438	6.33
METTL8 (methyltransferase 8, tRNA N3-cytidine)	0.638	1.88
PSG5 (pregnancy specific beta-1-glycoprotein 5)	-0.408	1.82
GNAT2 (G protein subunit alpha transducin 2)	0.661	1.55
SOX9 (SRY-box transcription factor 9)	0.141	3.39
SUSD1 (sushi domain containing 1)	-0.575	1.43
LPCAT1 (lysophosphatidylcholine acyltransferase 1)	-0.0407	2.32
TIMM44 (translocase of inner mitochondrial membrane 44)	0.196	2.79
CASP4 (caspase 4)	-0.651	3.62
SPPL2A (signal peptide peptidase like 2A)	0.529	1.71
UXS1 (UDP-glucuronate decarboxylase 1)	0.106	1.85
CLK2 (CDC like kinase 2)	0.223	1.69
ASRGL1 (asparaginase and isoaspartyl peptidase 1)	-0.182	1.53
LRP8 (LDL receptor related protein 8)	-0.531	4.02
NDUFA13 (NADH:ubiquinone oxidoreductase subunit A13)	-0.213	2.64
POGK (pogo transposable element derived with KRAB domain)	-0.935	3.95
VPS52 (VPS52 subunit of GARP complex)	0.124	2.12
ATP5PB (ATP synthase peripheral stalk-membrane subunit b)	-0.175	3.21
FZD7 (frizzled class receptor 7)	0.683	4.84
FAM194C (family with sequence similarity 194 member C)	0.844	1.45
PRUNE2 (prune homolog 2 with BCH domain)	-0.061	1.57
OSGEP (O-sialoglycoprotein endopeptidase)	-0.432	2.11
KLK14 (kallikrein related peptidase 14)	0.477	1.63
SNX15 (sorting nexin 15)	0.707	0.844
TYR (tyrosinase)	0.0985	3.48
UTP15 (UTP15 small subunit processome component)	0.129	2.55
MBNL3 (muscleblind like splicing regulator 3)	0.0945	1.75
GNS (glucosamine (N-acetyl)-6-sulfatase)	0.208	2.46
YEATS4 (YEATS domain containing 4)	-0.729	1.67
MRPL58 (mitochondrial ribosomal protein L58)	-0.527	2.88
RASA4 (RAS p21 protein activator 4)	0.549	2.06
CEP85 (centrosomal protein 85)	-0.152	1.74
WSCD1 (WSC domain sialate O sulfotransferase 1)	-0.132	1.51
TRPC5	-0.415	1.62
HPSE2 (heparanase 2 (inactive))	0.203	1.34
RPL9 (ribosomal protein L9)	0.686	1.94
FKBP5 (FKBP prolyl isomerase 5)	0.645	0.924
METTL3	-0.641	2.67
USP33 (ubiquitin specific peptidase 33)	-0.0796	1.35
STAB1 (stabilin 1)	-0.443	1.42
SKIC8 (SKI8 subunit of superkiller complex)	0.463	1.29

Taken from above.
Under “mean distance from KSR1 profile”, LPCAT1 (lysophosphatidylcholine acyltransferase 1) has 2.32
Under “mean distance from KSR1 profile”, CLK2 (CDC like kinase 2) reads 1.69
Value for OSGEP (O-sialoglycoprotein endopeptidase) under “mean correlation with KSR1 profile”: -0.432
CASP4 (caspase 4), mean distance from KSR1 profile = 3.62
Result of TRPC5 in “mean distance from KSR1 profile”: 1.62
SPPL2A (signal peptide peptidase like 2A), mean distance from KSR1 profile: 1.71

The results go on.
gene knocked down	mean correlation with KSR1 profile	mean distance from KSR1 profile
NPBWR2 (neuropeptides B and W receptor 2)	0.519	1.63
FUZ (fuzzy planar cell polarity protein)	0.745	4.34
ZAN (zonadhesin)	0.473	1.17
SYN1 (synapsin I)	-0.338	1.58
PNPLA4	-0.623	1.74
DDAH1 (dimethylarginine dimethylaminohydrolase 1)	-0.435	1.78
PDC (phosducin)	0.265	1.98
CCL1 (C-C motif chemokine ligand 1)	0.11	1.43
DHRS9 (dehydrogenase/reductase 9)	0.714	1.62
TIRAP (TIR domain containing adaptor protein)	-0.4	1.78
CC2D1A (coiled-coil and C2 domain containing 1A)	-0.149	6.41
CDY1 (chromodomain Y-linked 1)	-0.301	3.61
ZBTB33 (zinc finger and BTB domain containing 33)	-0.146	3.39
COL7A1 (collagen type VII alpha 1 chain)	-0.308	1.85
ZNF227 (zinc finger protein 227)	-0.378	1.51
IKBKB (inhibitor of nuclear factor kappa B kinase subunit beta)	-0.0741	4.59
CHD2 (chromodomain helicase DNA binding protein 2)	-0.612	1.68
SLC5A4	-0.199	1.49
LGALS1 (galectin 1)	0.289	2.87
HNF4G (hepatocyte nuclear factor 4 gamma)	-0.0622	1.3
GPR12 (G protein-coupled receptor 12)	0.322	1.94
